{"sequences": {"note": "Amino acid sequences for entries named in this document (tags omitted). A change or cut given only in a name is not applied to a line headed by its entry.", "UniProt Q9UNA4": "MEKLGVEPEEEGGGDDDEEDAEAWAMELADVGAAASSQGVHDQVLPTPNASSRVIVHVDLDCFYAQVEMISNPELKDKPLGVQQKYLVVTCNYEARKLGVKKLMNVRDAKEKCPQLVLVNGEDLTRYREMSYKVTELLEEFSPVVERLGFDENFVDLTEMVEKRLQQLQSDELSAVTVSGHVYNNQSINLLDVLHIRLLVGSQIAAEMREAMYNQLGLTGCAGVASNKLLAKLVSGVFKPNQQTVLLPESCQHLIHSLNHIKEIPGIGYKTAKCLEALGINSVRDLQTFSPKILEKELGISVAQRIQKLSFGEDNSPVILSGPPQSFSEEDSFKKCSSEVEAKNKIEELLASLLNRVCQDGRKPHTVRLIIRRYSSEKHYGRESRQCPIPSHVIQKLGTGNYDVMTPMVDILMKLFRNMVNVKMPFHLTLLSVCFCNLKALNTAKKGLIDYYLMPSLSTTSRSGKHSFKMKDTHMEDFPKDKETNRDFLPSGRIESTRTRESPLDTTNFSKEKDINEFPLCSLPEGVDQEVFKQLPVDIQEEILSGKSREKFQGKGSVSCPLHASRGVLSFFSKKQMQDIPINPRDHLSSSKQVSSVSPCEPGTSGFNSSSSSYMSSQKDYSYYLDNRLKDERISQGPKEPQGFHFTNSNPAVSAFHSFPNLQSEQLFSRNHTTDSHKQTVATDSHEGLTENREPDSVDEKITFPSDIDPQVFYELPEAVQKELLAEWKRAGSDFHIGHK"}, "source": "PubChem BioAssay AID588590", "about": "(National Center for Advancing Translational Sciences (NCATS), 2011)", "note": "Where “and” joins values, the source holds several entries; their conditions need not be identical. Identical values can stand only once. Hit rate of the full screen: of about 390,000 compounds, about 4,000 (1%) were called active. This list was built around the results that the source calls inconclusive (neither active nor inactive); the mix of calls is not that of the screen. Calls come from the whole dose curve; as a rule, active = well fitted inhibition curve with a large enough effect; inconclusive = small, poorly fitted or top-dose-only effect, or another doubt; inactive = no such curve, though single readings can be large or run the other way. Potencies of inconclusive entries are doubtful fits and often do not repeat. Potency is the fitted concentration of half-maximal effect.", "data": [{"target": "DNA polymerase iota (Homo sapiens) (UniProt Q9UNA4)", "test": "qHTS for Inhibitors of Polymerase Iota", "settings": "Pol iota fluorescent replication assay, 10 min; series mostly up to 115 µM; activity, negative = inhibition: at the top concentration", "in_short": "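Fluorescent replication assay read twice, at 0 min and 10 min after adding 50 nM (final) substrate. Enzyme (10 nM) and compounds were first incubated 15 min at room temperature; enzyme-free buffer wells were negative controls.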", "values": [{"compound": "CCOc1ccc2nc(Cl)c(/C=C/C(=O)c3ccco3)cc2c1", "Potency": "inconclusive: 15.8 µM [inhibitor, partial curve]"}, {"compound": "Cc1ccccc1NC(=O)c1c(C)[nH]c(=S)c(C#N)c1-c1ccco1", "Potency": "inconclusive: 20 µM [inhibitor, partial curve]"}, {"compound": "O=C(CNC(=O)c1ccc2ccccc2c1)Nc1ncccc1O", "activity, negative = inhibition": "inactive: 32%"}, {"compound": "O=C(O)c1cccc(NC(=O)c2cc3cc(Br)cc(Br)c3oc2=O)c1", "Potency": "inconclusive: 79.4 µM [inhibitor, partial curve, poor fit]"}, {"compound": "COc1ccc(-c2[nH]nc3oc(=O)cc(C)c23)cc1", "Potency": "inconclusive: 25.1 µM [inhibitor, single point]"}, {"compound": "CCOC(=O)CC1=NN(c2ccccc2)C(=O)/C1=C\\c1ccc(N(C)C)cc1", "Potency": "inconclusive: 14.1 µM [inhibitor, partial curve, poor fit]"}, {"compound": "CC(=O)[C@]1(O)Cc2c(O)c3c(c(O)c2[C@@H](O[C@H]2C[C@H](N)[C@H](O)[C@H](C)O2)C1)C(=O)c1ccccc1C3=O", "Potency": "active: 79.4 µM and active: 7.94 µM"}, {"compound": "Cc1cccc(NC(=O)CCN2CCN(C/C=C/c3ccccc3)CC2)c1", "Potency": "inconclusive: 11.2 µM [inhibitor, full curve, poor fit]"}, {"compound": "Cc1nc(-c2nc(CC(=O)NNC(=O)c3ccc(Cl)cc3)cs2)cs1", "Potency": "inconclusive: 7.08 µM [inhibitor, single point]"}, {"compound": "Cc1ccc(N2CCN(C(=S)c3ccc(-c4cccc([N+](=O)[O-])c4)o3)CC2)cc1", "Potency": "inconclusive: 39.8 µM [inhibitor, single point]"}, {"compound": "CCOC(=O)CSc1nc2ccc(N)cc2s1", "Potency": "inconclusive: 8.91 µM [inhibitor, partial curve, poor fit]"}, {"compound": "Cc1ccc(C(=O)Nc2ccc(-c3nc4ccccc4o3)cc2)cc1Cl", "activity, negative = inhibition": "inactive: 17.5%"}, {"compound": "N=C1S/C(=C\\c2ccc(O)cc2)C(=O)N1c1ccc(F)cc1", "Potency": "inconclusive: 10 µM [inhibitor, full curve]"}, {"compound": "O=C(O)CCN1CCc2ccccc21", "Potency": "inconclusive: 22.4 µM [inhibitor, partial curve, poor fit]"}, {"compound": "COc1ccc(N(Cc2cccs2)C(=O)COc2cccc(C)c2C)cc1", "Potency": "inconclusive: 89.1 µM [inhibitor, single point]"}, {"compound": "O=[N+]([O-])c1cccc(N/N=C/c2cccc(O)c2O)c1", "activity, negative = inhibition": "inactive: 105%"}, {"compound": "COc1cc(OC)c(NS(=O)(=O)c2c(C(=O)N3CCCCCC3)c(C)n(C)c2C)cc1Cl", "activity, negative = inhibition": "inactive: 10.1%"}, {"compound": "O=C(OCn1ncc(Br)c(Br)c1=O)c1ccc(F)cc1", "Potency": "inconclusive: 14.1 µM [inhibitor, full curve, poor fit]"}, {"compound": "C[n+]1c2n(c3ccccc31)N=C(c1ccccc1)CS2", "Potency": "inconclusive: 39.8 µM [inhibitor, partial curve, poor fit]"}, {"compound": "C=CCc1cccc(CNc2nc3ccccc3n2C(C)C)c1O", "Potency": "inconclusive: 11.2 µM [inhibitor, partial curve, poor fit]"}, {"compound": "CC1=N/C(=C\\c2ccc([N+](=O)[O-])cc2)C(=O)N1c1ccc(F)cc1F", "Potency": "inconclusive: 112 µM [inhibitor, partial curve, poor fit]"}, {"compound": "CCOC(=O)c1c(C)[nH]c(O)c1C=Nc1ccc(C(F)(F)F)cc1", "Potency": "inconclusive: 22.4 µM [inhibitor, partial curve, poor fit]"}, {"compound": "O=C(O)CCN1C(=O)/C(=C\\c2ccncc2)SC1=S", "activity, negative = inhibition": "inactive: 46%"}, {"compound": "Cc1ccc(NC(=O)NCc2cccn2C)cc1C", "activity, negative = inhibition": "inactive: -8.36%"}, {"compound": "O=C(NN=c1c(=O)c2ccccc2c1=O)c1ccccc1", "Potency": "inconclusive: 2 µM [inhibitor, full curve, poor fit]"}, {"compound": "O=C(CSc1nnc(Cn2nnc3ccccc32)o1)N(Cc1ccc(Cl)cc1)c1ccccc1", "Potency": "inconclusive: 7.94 µM [inhibitor, single point]"}, {"compound": "CN1CCN(S(=O)(=O)c2ccc3c(c2)CC(=O)N3C)CC1", "Potency": "inconclusive: 14.1 µM [inhibitor, partial curve]"}, {"compound": "C=CCn1c(C)cc(-c2csc(N)n2)c1C", "Potency": "inconclusive: 31.6 µM [inhibitor, single point]"}, {"compound": "Cc1nnc(N/N=C/c2ccccc2C(F)(F)F)n1N", "Potency": "inconclusive: 12.6 µM [inhibitor, full curve, poor fit]"}, {"compound": "CC(C)(C)[C@@H]1C=C(C(=O)N2CCN(Cc3ccccc3)CC2)O[C@H](OCc2ccc(CO)cc2)C1", "Potency": "inconclusive: 39.8 µM [inhibitor, single point]"}, {"compound": "Cc1ncc(CO)c2c1Oc1nc(-c3ccccc3)nc(SCC(=O)N3CCOCC3)c1C2", "Potency": "inconclusive: 50.1 µM [inhibitor, partial curve, poor fit]"}, {"compound": "O=C(O)C#CC(=O)O", "activity, negative = inhibition": "inactive: 13.8%"}, {"compound": "Cc1cccc(Cn2c(=O)n(CCCC(=O)NCc3ccccc3Cl)c(=O)c3ccccc32)c1", "Potency": "inconclusive: 100 µM [inhibitor, single point]"}, {"compound": "Cc1cc2nc(C3CCCN(C(=O)NCc4ccccc4)C3)[nH]c2cc1C", "note": "(configuration not stated)", "Potency": "inconclusive: 35.5 µM [inhibitor, single point]"}, {"compound": "O=C(OCc1nnc(-c2ccccc2)o1)C1CC(=O)N(CCc2ccccc2)C1", "note": "(configuration not stated)", "Potency": "inconclusive: 63.1 µM [inhibitor, partial curve, poor fit]"}, {"compound": "COc1ccc(C2=NN(C(=O)COC(=O)c3ccc(NC(=O)CC#N)cc3)C(c3ccco3)C2)cc1", "note": "(configuration not stated)", "Potency": "inconclusive: 63.1 µM [inhibitor, single point]"}, {"compound": "Cc1nnc(NCc2ccncc2)c2ccccc12", "Potency": "inconclusive: 39.8 µM [inhibitor, partial curve, poor fit]"}, {"compound": "Cc1[nH]c2ccccc2c1C(=O)COC(=O)c1ccccc1SCC(=O)N1CCCC1", "activity, negative = inhibition": "inactive: -15.8%"}, {"compound": "CC(=O)N1N=C(c2ccccc2)OC1c1ccc([N+](=O)[O-])s1", "note": "(configuration not stated)", "Potency": "inconclusive: 14.1 µM [inhibitor, full curve, poor fit]"}, {"compound": "CCN(CC)c1ccc(SS(=O)(=O)O)cc1", "Potency": "inconclusive: 7.94 µM [inhibitor, full curve, poor fit] and inconclusive: 2.24 µM [inhibitor, full curve, poor fit]"}, {"compound": "O=C1S/C(=C\\c2ccc(O)c([N+](=O)[O-])c2)C(=O)N1Cc1cccc([N+](=O)[O-])c1", "Potency": "inconclusive: 28.2 µM [inhibitor, partial curve, poor fit]"}, {"compound": "CCCCN(C)CCNC(=O)C1CCN(c2nc3ccc(CC)cc3s2)CC1", "activity, negative = inhibition": "inactive: -4.49%"}, {"compound": "CCOc1ccccc1C(=O)OCC(=O)Nc1nnc(-c2ccccc2)o1", "Potency": "inconclusive: 35.5 µM [inhibitor, single point]"}, {"compound": "O=C(CCC(=O)N1Cc2ccccc2Oc2ncccc21)NCc1ccccc1Cl", "Potency": "inconclusive: 100 µM [inhibitor, partial curve, poor fit]"}, {"compound": "COc1cccc(NC(=O)C(=O)NCC(c2cccnc2)N2CCN(c3ccccc3)CC2)c1", "note": "(configuration not stated)", "Potency": "inconclusive: 63.1 µM [inhibitor, partial curve, poor fit]"}, {"compound": "C=C1[C@@H](O)[C@H](CC(C)C)N(Cc2ccccc2Br)S1(=O)=O", "Potency": "inactive"}, {"compound": "O=[N+]([O-])c1ccc(N2CCCCC2)nc1", "activity, negative = inhibition": "inactive: 0.97%"}, {"compound": "CN(C)c1ccc(/C=C2\\Oc3ccc(C#Cc4cccc(N)c4)cc3C2=O)cc1", "Potency": "inconclusive: 39.8 µM [inhibitor, single point]"}, {"compound": "Cc1occc1-c1nnc(SCc2cc(=O)n3cc(Br)ccc3n2)n1C", "Potency": "inconclusive: 12.6 µM [inhibitor, full curve, poor fit]"}, {"compound": "CC(=O)N1CCN(c2ccc(NC(=O)c3ccc([N+](=O)[O-])o3)cc2Cl)CC1", "Potency": "inconclusive: 11.2 µM [inhibitor, full curve, poor fit]"}, {"compound": "COCCn1nnnc1C(c1ccccc1)N1CCN(C(=O)c2ccco2)CC1", "note": "(configuration not stated)", "Potency": "inconclusive: 15.8 µM [inhibitor, full curve, poor fit]"}, {"compound": "COc1ccc(OC)c(CNc2ncnc3onc(-c4ccc(Cl)cc4)c23)c1", "Potency": "inconclusive: 100 µM [inhibitor, single point]"}, {"compound": "CN1CCN(C2=C(NS(=O)(=O)c3cccs3)C(=O)c3ccccc3C2=O)CC1", "Potency": "inconclusive: 12.6 µM [inhibitor, full curve, poor fit]"}, {"compound": "COc1cc(OC)c2c(-c3ccccc3)cc(=O)oc2c1C(CC(=O)N1CCOCC1)c1ccc2c(c1)OCO2", "note": "(configuration not stated)", "Potency": "inconclusive: 89.1 µM [inhibitor, single point]"}, {"compound": "O=C(O)c1ccc(N/C(=N\\S(=O)(=O)c2ccc(Cl)cc2)c2ccccc2)cc1", "Potency": "inconclusive: 39.8 µM [inhibitor, partial curve, poor fit]"}, {"compound": "Cc1cc(Cn2nc(C(=O)NCc3cccc(C(F)(F)F)c3)cc2-c2ccccc2)on1", "Potency": "inconclusive: 35.5 µM [inhibitor, partial curve]"}, {"compound": "Cc1ccc(Cn2c(=O)n(Cc3ccc(Cl)cc3)c(=O)c3cccnc32)cc1", "activity, negative = inhibition": "inactive: -20.8%"}, {"compound": "N#Cc1cccc(C#N)c1NCC1CCCO1", "note": "(configuration not stated)", "Potency": "inconclusive: 35.5 µM [inhibitor, single point]"}, {"compound": "N=C1/C(=C\\c2ccc(SCc3ccccc3)o2)C(=O)N=C2SC(CC(=O)N3CCOCC3)=NN12", "Potency": "active: 10 µM"}, {"compound": "O=C(N/N=C/c1cccc(O)c1)NC1CCCCC1", "activity, negative = inhibition": "inactive: 49%"}, {"compound": "Cc1ccc(O)c(Nc2ncnc3ccccc23)c1", "Potency": "inconclusive: 25.1 µM [inhibitor, partial curve, poor fit]"}, {"compound": "C#CCOCCOCCOCCNc1nc(N2CCN(C(=O)Cn3cc(CCO)nn3)CC2)nc(N2CCN(C(=O)[C@H](CCCCN)n3cc(CC(C)O)nn3)CC2)n1", "note": "(some centres not stated)", "Potency": "inconclusive: 39.8 µM [inhibitor, single point]"}]}]}
